For the experiment, the target named is β1 integrin subunit (mouse (endogenous in C57BL/6 sperm)) (UniProt P09055). Put plainly: proximity ligation; Duolink in situ PLA on formaldehyde-fixed smears of C57BL/6 mouse sperm, freshly released and after calcium ionophore-induced acrosome reaction; two primary antibodies from different species, read by fluorescence microscopy.

Amino acid sequences for entries named in this document (tags omitted). Residues count along the entry.
UniProt P09055, residues 21-798: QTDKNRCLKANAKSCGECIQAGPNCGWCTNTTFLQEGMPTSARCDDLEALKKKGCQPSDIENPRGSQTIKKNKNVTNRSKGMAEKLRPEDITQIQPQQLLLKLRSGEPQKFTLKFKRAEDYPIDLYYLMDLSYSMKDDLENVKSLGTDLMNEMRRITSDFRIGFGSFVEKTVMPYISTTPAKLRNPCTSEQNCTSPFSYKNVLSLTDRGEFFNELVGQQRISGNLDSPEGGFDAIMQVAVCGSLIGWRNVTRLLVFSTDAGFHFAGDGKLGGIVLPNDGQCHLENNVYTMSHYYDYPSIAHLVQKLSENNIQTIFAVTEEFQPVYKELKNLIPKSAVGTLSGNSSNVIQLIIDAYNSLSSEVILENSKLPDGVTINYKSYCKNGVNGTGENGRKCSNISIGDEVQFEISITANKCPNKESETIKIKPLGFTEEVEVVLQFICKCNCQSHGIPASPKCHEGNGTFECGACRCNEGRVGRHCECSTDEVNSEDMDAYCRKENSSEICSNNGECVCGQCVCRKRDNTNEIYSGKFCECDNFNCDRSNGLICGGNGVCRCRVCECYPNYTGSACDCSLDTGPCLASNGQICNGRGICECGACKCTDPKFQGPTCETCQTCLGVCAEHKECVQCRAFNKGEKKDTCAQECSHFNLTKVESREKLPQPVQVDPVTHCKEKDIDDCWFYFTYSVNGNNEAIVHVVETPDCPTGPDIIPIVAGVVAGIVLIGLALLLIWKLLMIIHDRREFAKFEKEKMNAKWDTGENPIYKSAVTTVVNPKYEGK

Results are given in words; binding and its absence hold for the method and conditions named. In cells and extracts the contact can be indirect. Some results given as binding are weak or reduced against the parent protein; the word gives no strength.

B1: CD46 (membrane cofactor protein, MCP) (protein, UniProt O88174 45-365)
chain: CELPRPFEAMELKGTPKLFYAVGEKIEYKCKKGYLYLSPYLMIATCEPNHTWVPISDAGCIKVQCTMLQDPSFGKVYYIDGSFSWGARAKFTCMEGYYVVGMSVLHCVLKGDDEAYWNGYPPHCEKIYCLPPPKIKNGTHTLTDINVFKYHEAVSYSCDPTPGPDKFSLVGTSMIFCAGHNTWSNSPPECKVVKCPNPVLQNGRLISGAGEIFSYQSTVMFECLQGFYMEGSSMVICSANNSWEPSIPKCLKGPRPTHPTKPPVYNYTGYPSPREGIFSQELDAWIIALIVITSIVGVFILCLIVLRCFEHRKKTNVSAAR
On to B1, for which the binding result was “binds”.

The record behind these values is PMC5036054.
